# Plain letter strings leave the end groups untold.
# Test: peptide synthesis
# Details: whole synthesis
sequence,measurement,value
KQRFTTMPFLFCNVNDVCNFASRNDYS,final HPLC purity,greater than 90% purity
